No constants are given. Whether binding was seen depends on the method and setting. Binding seen in cells or lysates may run through a third protein. A yes stands for co-enrichment or nearness to the bait. Other partners may have been found.
Molecular target: IGF2BP3 (insulin-like growth factor 2 mRNA binding protein 3) (human (endogenous in U251 and A172)) (UniProt O00425)
Assay: affinity purification with mass spectrometry; co-IP with IGF2BP3 antibody from GBM cell lysate (co-IP buffer with PMSF, magnetic beads, 4 °C for 12 h, 4 washes); eluted proteins identified by mass spectrometry

Sequences of proteins named here, by UniProt entry; tags and fusion partners are left off.
UniProt O00425: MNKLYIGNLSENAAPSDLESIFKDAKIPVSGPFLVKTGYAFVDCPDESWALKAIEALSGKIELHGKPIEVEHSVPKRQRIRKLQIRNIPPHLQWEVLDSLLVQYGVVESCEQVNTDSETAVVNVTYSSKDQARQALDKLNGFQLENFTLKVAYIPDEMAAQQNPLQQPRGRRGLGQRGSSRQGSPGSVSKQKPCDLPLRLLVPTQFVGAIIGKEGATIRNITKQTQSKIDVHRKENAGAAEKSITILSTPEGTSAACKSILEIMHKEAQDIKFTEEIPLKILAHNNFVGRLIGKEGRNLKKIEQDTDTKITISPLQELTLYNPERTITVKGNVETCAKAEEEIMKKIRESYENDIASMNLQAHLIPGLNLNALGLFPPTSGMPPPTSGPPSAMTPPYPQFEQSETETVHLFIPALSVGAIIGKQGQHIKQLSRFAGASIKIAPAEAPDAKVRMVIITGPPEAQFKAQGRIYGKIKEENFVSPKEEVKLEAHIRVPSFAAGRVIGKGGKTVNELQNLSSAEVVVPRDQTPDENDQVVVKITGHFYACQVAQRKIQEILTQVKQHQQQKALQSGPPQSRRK
UniProt Q9Y4D8: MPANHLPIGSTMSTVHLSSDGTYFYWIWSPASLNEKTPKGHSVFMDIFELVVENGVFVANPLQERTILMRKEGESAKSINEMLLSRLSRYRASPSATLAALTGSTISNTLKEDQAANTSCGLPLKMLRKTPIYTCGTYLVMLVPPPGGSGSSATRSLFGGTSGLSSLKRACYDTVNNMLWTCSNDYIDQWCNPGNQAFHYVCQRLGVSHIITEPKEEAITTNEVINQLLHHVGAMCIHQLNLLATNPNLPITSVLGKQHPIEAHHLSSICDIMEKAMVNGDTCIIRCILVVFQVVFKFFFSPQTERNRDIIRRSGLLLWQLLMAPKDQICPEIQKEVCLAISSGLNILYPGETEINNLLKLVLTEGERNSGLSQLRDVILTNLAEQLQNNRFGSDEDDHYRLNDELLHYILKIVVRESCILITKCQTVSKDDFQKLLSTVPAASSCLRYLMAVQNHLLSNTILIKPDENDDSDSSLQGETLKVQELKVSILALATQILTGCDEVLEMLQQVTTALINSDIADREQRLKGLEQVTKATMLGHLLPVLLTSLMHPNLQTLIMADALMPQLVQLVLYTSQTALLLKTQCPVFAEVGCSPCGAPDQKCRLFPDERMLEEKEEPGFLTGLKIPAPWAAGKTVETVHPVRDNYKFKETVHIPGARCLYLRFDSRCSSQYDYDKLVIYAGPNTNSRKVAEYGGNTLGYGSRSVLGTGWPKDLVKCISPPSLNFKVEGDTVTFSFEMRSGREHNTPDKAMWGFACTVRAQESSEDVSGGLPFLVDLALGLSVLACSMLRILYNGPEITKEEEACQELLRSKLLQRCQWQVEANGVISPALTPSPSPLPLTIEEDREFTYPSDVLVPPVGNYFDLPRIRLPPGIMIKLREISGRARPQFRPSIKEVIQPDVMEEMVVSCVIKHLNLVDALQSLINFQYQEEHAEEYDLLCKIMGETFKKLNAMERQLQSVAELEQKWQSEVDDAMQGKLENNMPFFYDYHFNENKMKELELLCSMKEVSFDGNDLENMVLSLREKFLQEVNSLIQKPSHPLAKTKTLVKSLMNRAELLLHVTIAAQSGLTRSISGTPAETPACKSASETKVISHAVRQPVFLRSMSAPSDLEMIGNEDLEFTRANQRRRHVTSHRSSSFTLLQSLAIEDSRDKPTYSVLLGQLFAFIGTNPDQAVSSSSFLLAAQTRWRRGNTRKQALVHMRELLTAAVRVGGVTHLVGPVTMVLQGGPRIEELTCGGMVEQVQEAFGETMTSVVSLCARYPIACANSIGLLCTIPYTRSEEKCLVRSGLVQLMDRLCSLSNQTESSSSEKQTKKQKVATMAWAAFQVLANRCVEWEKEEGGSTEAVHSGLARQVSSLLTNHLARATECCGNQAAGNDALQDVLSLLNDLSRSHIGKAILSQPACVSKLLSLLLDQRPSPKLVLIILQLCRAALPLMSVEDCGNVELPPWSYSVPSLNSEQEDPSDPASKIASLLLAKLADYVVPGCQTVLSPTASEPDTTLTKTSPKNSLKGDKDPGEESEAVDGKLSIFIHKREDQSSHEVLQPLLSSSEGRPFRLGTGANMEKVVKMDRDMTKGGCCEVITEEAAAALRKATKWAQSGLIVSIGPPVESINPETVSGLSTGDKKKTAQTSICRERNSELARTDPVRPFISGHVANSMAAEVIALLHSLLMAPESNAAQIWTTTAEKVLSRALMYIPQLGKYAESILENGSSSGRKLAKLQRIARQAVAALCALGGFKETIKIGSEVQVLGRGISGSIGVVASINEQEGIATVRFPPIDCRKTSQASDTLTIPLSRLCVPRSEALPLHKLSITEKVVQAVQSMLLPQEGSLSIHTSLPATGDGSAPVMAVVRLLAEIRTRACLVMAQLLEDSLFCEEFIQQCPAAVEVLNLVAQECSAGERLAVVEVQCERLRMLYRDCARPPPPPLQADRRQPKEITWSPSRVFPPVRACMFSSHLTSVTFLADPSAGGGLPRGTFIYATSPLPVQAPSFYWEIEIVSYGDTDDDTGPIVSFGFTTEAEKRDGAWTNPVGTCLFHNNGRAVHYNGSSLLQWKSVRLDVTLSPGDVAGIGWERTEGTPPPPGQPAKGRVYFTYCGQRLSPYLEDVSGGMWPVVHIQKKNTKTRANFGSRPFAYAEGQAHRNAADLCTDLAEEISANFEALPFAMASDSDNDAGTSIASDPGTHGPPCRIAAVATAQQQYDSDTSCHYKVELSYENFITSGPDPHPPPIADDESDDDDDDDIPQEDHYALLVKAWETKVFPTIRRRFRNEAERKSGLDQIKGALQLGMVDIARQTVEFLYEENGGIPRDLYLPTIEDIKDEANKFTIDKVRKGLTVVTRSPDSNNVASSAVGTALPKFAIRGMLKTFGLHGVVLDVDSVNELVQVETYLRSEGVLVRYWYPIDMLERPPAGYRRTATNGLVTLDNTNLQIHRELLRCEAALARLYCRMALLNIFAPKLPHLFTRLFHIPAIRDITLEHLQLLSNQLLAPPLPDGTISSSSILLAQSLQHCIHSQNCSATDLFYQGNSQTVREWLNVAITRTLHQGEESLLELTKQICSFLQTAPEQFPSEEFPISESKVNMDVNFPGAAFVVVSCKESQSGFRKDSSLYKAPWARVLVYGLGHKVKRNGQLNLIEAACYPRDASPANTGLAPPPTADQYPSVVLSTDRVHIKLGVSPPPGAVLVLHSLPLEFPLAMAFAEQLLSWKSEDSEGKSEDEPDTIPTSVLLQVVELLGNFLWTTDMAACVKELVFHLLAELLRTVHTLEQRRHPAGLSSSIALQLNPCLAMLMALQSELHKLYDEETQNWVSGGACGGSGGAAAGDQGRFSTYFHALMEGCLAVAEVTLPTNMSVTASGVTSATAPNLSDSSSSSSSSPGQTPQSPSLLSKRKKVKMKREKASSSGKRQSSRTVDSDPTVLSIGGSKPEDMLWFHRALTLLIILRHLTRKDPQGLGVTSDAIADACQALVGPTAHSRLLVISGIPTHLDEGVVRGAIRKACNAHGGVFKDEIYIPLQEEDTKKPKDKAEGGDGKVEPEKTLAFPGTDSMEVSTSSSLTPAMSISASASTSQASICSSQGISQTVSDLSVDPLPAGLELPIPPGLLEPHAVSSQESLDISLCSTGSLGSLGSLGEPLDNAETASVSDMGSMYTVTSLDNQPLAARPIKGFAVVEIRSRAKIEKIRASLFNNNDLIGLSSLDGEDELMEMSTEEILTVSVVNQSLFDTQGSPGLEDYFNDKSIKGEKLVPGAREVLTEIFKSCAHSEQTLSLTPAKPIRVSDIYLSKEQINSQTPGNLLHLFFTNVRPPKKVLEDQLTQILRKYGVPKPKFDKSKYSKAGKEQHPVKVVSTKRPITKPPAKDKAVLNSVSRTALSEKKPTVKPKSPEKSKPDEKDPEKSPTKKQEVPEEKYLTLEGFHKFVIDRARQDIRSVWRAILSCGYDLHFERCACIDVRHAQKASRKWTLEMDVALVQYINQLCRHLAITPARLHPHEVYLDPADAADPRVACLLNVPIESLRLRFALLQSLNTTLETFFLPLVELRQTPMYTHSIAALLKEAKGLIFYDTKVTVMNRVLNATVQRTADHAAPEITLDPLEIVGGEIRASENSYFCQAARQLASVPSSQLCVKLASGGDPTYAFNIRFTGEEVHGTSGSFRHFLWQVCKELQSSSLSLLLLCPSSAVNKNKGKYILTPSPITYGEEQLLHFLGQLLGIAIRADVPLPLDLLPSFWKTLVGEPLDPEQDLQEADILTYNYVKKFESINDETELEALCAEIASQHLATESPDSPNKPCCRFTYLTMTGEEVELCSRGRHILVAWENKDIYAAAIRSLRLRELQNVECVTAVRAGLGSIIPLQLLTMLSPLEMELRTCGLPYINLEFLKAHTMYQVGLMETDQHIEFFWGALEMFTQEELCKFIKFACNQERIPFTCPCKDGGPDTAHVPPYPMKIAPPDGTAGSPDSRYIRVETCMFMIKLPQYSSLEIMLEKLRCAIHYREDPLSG

binding: binds
Substance: HECTD4 (from UniProt Q9Y4D8 1-3996) (enzyme)

Source: PMC8759291
